Data as given in patent US9108937B2 (Merck Sharp & Dohme Corp., priority 2010, dated 2015).
pEC50: −log10 of the molar value. Some entries share one result that the patent states for a list of compounds.

Chains of the proteins cited; added tags and fusions are not shown. Residues count along the entry.
UniProt Q14416, 19-872: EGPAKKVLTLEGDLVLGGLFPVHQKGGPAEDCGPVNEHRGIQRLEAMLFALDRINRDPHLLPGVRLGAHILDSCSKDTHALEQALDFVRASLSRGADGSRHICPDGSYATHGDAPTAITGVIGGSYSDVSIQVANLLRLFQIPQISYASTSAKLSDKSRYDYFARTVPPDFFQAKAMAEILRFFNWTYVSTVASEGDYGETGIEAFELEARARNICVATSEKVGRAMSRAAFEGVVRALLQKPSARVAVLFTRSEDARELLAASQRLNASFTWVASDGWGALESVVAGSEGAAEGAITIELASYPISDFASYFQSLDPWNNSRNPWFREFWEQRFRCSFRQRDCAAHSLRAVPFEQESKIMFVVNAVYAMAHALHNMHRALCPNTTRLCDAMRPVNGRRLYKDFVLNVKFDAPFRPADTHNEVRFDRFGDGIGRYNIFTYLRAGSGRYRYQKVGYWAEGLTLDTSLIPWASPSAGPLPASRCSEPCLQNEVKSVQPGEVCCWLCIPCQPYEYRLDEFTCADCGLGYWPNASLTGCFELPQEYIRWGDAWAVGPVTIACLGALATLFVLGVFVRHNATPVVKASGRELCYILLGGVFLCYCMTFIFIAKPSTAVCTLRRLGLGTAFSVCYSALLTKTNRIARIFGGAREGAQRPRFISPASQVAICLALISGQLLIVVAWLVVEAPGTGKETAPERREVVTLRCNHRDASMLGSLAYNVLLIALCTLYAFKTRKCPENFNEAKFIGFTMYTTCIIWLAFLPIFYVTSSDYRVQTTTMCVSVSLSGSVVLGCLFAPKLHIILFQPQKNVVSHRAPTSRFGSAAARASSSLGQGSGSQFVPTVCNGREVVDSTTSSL

Molecular target: T1, human mGluR2 (Homo sapiens, UniProt Q14416)
T1 construct: expressed in transfected cells
Experiment: FLIPR Ca2+ mobilization assay, potentiation of glutamate response
Format: cell-based
Settings: for minimum fold potentiation of glutamate response: in the presence of an EC20 concentration of glutamate (900 nM); for pEC50: stated as 'generally with an EC50 of less than about 1.5 μM', read-out: EC50, potentiating the mGluR2 receptor in the FLIPR assay
Procedure: Inhibition constants are determined as follows. The compounds of the present invention may be tested in a fluorescence laser imaging plate reader (FLIPR) based assay. This assay is a common functional assay to monitor Ca^2+ mobilization in whole cells expressing recombinant receptor coupled with a promiscuous G-protein. CHO dhfr− cells stably expressing recombinant human mGluR2 and Gα16 loaded with Fluo-4 AM (Invitrogen, Carlsbad Calif.) are treated with dose responses of compounds and the Ca^2+ response is monitored on a FLIPR384 (Molecular Devices, Sunnydale Calif.) for agonist activity. The potentiation response is monitored after a subsequent addition of an EC20 concentration of glutamate (900 nM). The maximum calcium response at each concentration of compound for agonist or potentiation are plotted as dose responses and the curves are fitted with a four parameters logistic equation giving EC50 and Hill coefficient using the iterative non linear curve fitting software program.

Row | minimum fold potentiation of glutamate response [fold] | pEC50 | Compound
1 | ≥ 1.5 | > 5.82 | CN1c2cc(-c3cccc(CNc4ccnc(C#N)c4)c3)ccc2N(CC2CC2)S1(=O)=O [Compound 24-2, 4-({3-[1-(cyclopropylmethyl)-3-methyl-2,2-dioxido-1,3-dihydro-2,1,3-benzothiadiazol-5-yl]benzyl}amino) pyridine-2-carbonitrile]
2 | ≥ 1.5 | > 5.82 | CN1c2cc(-c3cccc(CNc4ncccc4C#N)c3)ccc2N(CC2CC2)S1(=O)=O [Compound 24-1, 2-({3-[1-(cyclopropylmethyl)-3-methyl-2,2-dioxido-1,3-dihydro-2,1,3-benzothiadiazol-5-yl]benzyl}amino)nicotinonitrile]
3 | ≥ 1.5 | > 5.82 | CN1c2nc(-c3cccc(N4CCS(=O)(=O)CC4)c3)ccc2N(CC2CC2)S1(=O)=O [Compound 28-6, 1-(cyclopropylmethyl)-5-[3-(1,1-dioxidothiomorpholin-4-yl)phenyl]-3-methyl-1,3-dihydro[1,2,5]thiadiazolo [3,4-b]pyridine 2,2-dioxide]
